For test [1], the target named is IQ motif-containing GTPase-activating protein 2 (IQGAP2), endogenous (human (endogenous in SGC-7901 and MGC-803)) (UniProt Q13576). The test can be described thus: co-IP; endogenous proteins; lysates of SGC-7901 and MGC-803 (1 mg total protein) with anti-SHIP2 or anti-IQGAP2 antibodies (3 ug) at 4 °C overnight, protein A/G beads, Western blot; IgG as negative control.

Sequences of proteins named here, by UniProt entry; tags and fusion partners are left off.
UniProt Q13576: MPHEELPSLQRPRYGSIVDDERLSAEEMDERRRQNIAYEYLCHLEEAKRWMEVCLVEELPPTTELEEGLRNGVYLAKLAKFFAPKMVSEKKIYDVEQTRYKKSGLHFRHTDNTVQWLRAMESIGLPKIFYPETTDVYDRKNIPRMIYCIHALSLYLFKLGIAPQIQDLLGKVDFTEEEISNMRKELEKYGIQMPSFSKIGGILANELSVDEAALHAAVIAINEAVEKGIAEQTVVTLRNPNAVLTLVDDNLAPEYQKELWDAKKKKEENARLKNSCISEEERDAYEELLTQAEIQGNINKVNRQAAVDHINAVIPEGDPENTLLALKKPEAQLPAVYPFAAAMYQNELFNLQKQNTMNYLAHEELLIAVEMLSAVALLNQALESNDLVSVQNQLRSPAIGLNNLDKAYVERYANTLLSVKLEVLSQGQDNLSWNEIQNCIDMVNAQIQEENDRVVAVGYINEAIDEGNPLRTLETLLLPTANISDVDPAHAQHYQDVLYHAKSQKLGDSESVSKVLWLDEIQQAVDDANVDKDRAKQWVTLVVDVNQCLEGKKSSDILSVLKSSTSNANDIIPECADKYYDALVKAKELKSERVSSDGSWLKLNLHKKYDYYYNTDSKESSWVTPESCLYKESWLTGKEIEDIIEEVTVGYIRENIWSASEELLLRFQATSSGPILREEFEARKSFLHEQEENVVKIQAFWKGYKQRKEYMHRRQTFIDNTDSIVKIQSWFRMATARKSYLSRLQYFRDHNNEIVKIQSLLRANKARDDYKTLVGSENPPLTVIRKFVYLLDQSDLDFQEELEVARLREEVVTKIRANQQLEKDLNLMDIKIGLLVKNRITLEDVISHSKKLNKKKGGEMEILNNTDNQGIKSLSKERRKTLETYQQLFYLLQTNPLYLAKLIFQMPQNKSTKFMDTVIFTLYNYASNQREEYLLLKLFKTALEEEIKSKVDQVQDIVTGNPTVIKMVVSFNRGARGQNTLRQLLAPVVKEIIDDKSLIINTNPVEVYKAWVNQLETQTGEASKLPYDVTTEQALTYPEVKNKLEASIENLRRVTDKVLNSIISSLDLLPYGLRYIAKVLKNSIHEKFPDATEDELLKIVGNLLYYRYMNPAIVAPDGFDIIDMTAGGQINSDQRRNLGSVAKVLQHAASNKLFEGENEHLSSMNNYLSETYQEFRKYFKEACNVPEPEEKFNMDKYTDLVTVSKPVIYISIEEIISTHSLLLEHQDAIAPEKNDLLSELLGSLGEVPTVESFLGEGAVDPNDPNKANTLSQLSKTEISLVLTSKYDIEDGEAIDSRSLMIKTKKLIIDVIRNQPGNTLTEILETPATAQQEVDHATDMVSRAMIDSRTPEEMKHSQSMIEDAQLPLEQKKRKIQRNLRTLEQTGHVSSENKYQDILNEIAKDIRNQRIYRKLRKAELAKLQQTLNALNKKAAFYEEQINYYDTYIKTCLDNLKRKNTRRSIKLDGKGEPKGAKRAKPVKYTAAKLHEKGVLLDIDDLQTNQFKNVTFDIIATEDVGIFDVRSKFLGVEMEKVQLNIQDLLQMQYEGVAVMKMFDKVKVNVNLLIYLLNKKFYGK

Test [2] has as its target cMyc-IQGAP2 (pCDNA3.1-cMyc-IQGAP2) (human) (UniProt Q13576). The test can be described thus: co-IP; tGFP-tagged SHIP2 constructs and cMyc-IQGAP2 co-transfected into HEK293T; lysates immunoprecipitated with anti-cMyc or anti-tGFP antibodies, Western blot. Background: Immunoblotting shows a protein as a band on a membrane.

No constants are given. Whether binding was seen depends on the method and setting. Binding seen in cells or lysates may run through a third protein. Some binding calls cover weakened binding; strength is not graded here. For some assays here: Where a sequence is shown, tags or fusion partners need not be part of it.

B1: Src homology 2-containing inositol 5-phosphatase 2 (SHIP2), endogenous (protein, UniProt O15357 1-1258)
chain: MASACGAPGPGGALGSQAPSWYHRDLSRAAAEELLARAGRDGSFLVRDSESVAGAFALCVLYQKHVHTYRILPDGEDFLAVQTSQGVPVRRFQTLGELIGLYAQPNQGLVCALLLPVEGEREPDPPDDRDASDGEDEKPPLPPRSGSTSISAPTGPSSPLPAPETPTAPAAESAPNGLSTVSHDYLKGSYGLDLEAVRGGASHLPHLTRTLATSCRRLHSEVDKVLSGLEILSKVFDQQSSPMVTRLLQQQNLPQTGEQELESLVLKLSVLKDFLSGIQKKALKALQDMSSTAPPAPQPSTRKAKTIPVQAFEVKLDVTLGDLTKIGKSQKFTLSVDVEGGRLVLLRRQRDSQEDWTTFTHDRIRQLIKSQRVQNKLGVVFEKEKDRTQRKDFIFVSARKREAFCQLLQLMKNKHSKQDEPDMISVFIGTWNMGSVPPPKNVTSWFTSKGLGKTLDEVTVTIPHDIYVFGTQENSVGDREWLDLLRGGLKELTDLDYRPIAMQSLWNIKVAVLVKPEHENRISHVSTSSVKTGIANTLGNKGAVGVSFMFNGTSFGFVNCHLTSGNEKTARRNQNYLDILRLLSLGDRQLNAFDISLRFTHLFWFGDLNYRLDMDIQEILNYISRKEFEPLLRVDQLNLEREKHKVFLRFSEEEISFPPTYRYERGSRDTYAWHKQKPTGVRTNVPSWCDRILWKSYPETHIICNSYGCTDDIVTSDHSPVFGTFEVGVTSQFISKKGLSKTSDQAYIEFESIEAIVKTASRTKFFIEFYSTCLEEYKKSFENDAQSSDNINFLKVQWSSRQLPTLKPILADIEYLQDQHLLLTVKSMDGYESYGECVVALKSMIGSTAQQFLTFLSHRGEETGNIRGSMKVRVPTERLGTRERLYEWISIDKDEAGAKSKAPSVSRGSQEPRSGSRKPAFTEASCPLSRLFEEPEKPPPTGRPPAPPRAAPREEPLTPRLKPEGAPEPEGVAAPPPKNSFNNPAYYVLEGVPHQLLPPEPPSPARAPVPSATKNKVAITVPAPQLGHHRHPRVGEGSSSDEESGGTLPPPDFPPPPLPDSAIFLPPSLDPLPGPVVRGRGGAEARGPPPPKAHPRPPLPPGPSPASTFLGEVASGDDRSCSVLQMAKTLSEVDYAPAGPARSALLPGPLELQPPRGLPSDYGRPLSFPPPRIRESIQEDLAEEAPCLQGGRASGLGEAGMSAWLRAIGLERYEEGLVHNGWDDLEFLSDITEEDLEEAGVQDPAHKRLLLDTLQLSK
Take B1: the binding result in test [1] is recorded as “binds”.

B2: tGFP-SHIP2 WT (pCMV-AC-GFP-SHIP2) (protein, UniProt O15357 1-1258)
chain: B1 chain
Consider B2, for which the binding result in test [2] is recorded as “binds”.

The values are drawn from paper PMC7139352.
